Assay results from the supplement of paper PMC10060354, “Discovery of a small molecule ligand of FRS2 that inhibits invasion and tumor growth” (Cellular Oncology, 2022).

Chains of the proteins cited; added tags and fusions are not shown. Lines headed by an entry give the natural chain unless they say otherwise; changes in a name come on top.
UniProt Q13112, whole entry, looked up: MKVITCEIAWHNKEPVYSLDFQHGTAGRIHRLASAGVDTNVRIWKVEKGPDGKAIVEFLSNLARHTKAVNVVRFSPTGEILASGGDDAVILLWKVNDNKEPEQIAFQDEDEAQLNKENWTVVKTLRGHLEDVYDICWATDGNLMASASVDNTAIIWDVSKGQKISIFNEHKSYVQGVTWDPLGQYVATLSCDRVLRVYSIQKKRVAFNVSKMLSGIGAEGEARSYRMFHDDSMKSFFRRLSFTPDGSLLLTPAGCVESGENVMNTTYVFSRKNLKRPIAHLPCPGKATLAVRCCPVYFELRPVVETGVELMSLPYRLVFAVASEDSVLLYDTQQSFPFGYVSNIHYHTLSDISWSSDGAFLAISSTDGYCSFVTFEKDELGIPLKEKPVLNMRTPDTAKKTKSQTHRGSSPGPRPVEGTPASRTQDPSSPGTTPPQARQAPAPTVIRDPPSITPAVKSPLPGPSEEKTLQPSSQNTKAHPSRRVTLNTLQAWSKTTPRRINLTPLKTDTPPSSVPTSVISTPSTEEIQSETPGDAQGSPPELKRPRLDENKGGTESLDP
UniProt P19087, whole entry: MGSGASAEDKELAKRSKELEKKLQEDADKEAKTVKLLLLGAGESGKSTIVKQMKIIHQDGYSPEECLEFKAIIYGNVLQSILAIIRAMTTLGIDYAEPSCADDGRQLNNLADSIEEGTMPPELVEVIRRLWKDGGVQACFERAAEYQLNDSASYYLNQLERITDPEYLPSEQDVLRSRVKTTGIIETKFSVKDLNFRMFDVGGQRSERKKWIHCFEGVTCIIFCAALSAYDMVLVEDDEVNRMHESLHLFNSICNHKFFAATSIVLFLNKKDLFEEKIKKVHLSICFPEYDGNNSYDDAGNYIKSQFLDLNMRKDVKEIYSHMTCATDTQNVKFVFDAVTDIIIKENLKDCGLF
UniProt P33947: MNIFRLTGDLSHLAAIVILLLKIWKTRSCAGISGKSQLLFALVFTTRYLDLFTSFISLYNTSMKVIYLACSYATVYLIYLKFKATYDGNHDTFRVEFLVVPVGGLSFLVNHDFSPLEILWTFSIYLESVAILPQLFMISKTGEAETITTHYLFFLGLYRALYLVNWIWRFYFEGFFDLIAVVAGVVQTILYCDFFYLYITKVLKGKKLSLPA
UniProt P62316, whole entry: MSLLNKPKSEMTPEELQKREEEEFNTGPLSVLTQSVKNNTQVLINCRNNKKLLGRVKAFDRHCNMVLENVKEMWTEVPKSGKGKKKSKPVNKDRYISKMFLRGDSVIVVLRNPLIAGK
UniProt Q8N680: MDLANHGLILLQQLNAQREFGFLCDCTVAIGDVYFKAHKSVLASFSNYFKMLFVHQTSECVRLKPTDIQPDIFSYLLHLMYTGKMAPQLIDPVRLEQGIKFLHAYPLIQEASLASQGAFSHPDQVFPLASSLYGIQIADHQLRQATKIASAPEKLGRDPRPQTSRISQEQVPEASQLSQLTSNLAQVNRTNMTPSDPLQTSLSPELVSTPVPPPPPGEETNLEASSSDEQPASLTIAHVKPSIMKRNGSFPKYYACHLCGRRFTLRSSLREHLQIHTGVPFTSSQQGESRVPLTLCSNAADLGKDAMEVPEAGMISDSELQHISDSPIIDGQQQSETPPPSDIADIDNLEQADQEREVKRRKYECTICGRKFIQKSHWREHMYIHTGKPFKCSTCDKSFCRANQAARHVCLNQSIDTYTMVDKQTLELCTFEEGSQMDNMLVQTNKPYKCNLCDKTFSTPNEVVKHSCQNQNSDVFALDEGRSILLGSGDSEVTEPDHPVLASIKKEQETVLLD
UniProt O94913, whole entry: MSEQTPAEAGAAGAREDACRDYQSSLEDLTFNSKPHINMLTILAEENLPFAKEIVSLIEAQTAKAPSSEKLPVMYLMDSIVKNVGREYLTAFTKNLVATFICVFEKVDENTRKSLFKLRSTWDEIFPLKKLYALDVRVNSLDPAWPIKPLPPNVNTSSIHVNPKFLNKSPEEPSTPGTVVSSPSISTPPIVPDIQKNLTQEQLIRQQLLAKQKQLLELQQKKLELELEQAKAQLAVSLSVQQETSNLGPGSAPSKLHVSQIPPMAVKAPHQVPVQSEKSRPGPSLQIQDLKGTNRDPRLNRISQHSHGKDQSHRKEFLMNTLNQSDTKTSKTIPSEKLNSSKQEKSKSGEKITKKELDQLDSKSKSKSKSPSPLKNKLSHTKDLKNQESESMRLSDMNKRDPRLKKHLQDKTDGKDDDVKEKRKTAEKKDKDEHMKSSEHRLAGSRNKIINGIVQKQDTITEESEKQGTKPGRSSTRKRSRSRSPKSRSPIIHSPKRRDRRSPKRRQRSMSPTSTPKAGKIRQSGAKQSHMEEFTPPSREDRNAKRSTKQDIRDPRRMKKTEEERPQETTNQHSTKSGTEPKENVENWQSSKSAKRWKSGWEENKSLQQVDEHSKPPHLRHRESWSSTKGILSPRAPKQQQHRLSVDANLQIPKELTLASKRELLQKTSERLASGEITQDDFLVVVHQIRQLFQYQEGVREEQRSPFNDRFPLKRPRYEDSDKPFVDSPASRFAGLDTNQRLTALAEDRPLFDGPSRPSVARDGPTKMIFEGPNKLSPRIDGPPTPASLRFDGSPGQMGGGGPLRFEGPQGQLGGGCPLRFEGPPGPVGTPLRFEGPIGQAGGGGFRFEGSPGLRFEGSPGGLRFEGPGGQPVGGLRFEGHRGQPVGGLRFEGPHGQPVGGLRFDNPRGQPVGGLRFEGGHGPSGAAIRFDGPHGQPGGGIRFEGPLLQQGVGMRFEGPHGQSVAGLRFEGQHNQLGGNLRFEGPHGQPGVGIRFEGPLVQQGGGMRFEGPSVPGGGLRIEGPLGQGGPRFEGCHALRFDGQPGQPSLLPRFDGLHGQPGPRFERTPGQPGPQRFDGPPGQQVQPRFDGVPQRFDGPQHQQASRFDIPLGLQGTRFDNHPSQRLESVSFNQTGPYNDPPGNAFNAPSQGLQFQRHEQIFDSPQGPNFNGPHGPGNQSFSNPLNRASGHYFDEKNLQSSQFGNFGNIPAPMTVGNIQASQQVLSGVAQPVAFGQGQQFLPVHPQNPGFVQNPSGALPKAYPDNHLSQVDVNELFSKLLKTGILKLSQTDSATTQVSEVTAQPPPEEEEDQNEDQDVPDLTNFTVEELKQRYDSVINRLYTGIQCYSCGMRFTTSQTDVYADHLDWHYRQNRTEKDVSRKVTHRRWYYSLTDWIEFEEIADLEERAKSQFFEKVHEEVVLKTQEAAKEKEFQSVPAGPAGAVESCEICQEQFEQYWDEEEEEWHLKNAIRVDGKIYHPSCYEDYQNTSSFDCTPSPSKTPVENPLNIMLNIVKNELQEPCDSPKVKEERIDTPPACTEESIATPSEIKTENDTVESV
UniProt Q86X83, whole entry: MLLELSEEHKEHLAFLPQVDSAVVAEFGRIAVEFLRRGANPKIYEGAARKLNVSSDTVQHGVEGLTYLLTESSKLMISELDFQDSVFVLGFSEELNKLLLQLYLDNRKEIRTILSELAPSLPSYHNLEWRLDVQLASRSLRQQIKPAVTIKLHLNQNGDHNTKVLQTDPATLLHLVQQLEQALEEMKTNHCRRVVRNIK
UniProt P42574: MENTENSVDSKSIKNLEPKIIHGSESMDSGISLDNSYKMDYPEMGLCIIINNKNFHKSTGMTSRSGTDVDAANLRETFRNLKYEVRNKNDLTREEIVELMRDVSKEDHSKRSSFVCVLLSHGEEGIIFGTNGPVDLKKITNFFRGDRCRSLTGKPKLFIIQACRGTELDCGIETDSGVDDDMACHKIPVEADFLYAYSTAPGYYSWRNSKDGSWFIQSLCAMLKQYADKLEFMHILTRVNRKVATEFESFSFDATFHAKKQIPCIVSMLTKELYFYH
UniProt Q9BTV5: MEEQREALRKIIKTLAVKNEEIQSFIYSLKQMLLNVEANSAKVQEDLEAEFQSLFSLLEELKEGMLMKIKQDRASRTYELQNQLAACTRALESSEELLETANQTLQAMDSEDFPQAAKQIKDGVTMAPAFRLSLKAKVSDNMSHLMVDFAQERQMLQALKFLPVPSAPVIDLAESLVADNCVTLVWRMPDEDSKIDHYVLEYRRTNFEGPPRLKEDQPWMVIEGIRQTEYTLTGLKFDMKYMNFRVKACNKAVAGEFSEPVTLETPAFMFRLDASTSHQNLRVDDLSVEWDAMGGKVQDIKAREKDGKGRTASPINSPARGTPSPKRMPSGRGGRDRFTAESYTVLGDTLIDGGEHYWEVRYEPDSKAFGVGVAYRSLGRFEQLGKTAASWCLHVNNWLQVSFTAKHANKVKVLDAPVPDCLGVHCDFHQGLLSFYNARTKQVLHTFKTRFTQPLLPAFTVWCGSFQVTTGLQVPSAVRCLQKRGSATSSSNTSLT
UniProt Q5I7T1: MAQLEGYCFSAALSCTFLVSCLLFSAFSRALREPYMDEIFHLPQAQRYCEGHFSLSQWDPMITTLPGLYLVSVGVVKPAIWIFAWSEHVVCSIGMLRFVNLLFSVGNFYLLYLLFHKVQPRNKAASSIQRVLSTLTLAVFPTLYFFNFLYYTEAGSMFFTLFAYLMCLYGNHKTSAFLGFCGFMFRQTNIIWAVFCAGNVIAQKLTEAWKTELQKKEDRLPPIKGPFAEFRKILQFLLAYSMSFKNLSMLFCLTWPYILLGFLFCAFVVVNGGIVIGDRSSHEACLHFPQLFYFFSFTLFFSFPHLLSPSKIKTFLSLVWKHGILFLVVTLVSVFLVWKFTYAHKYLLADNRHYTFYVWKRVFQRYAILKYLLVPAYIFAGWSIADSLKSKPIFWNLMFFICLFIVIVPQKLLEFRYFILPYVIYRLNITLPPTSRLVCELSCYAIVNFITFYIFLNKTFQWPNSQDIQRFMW
UniProt Q92913: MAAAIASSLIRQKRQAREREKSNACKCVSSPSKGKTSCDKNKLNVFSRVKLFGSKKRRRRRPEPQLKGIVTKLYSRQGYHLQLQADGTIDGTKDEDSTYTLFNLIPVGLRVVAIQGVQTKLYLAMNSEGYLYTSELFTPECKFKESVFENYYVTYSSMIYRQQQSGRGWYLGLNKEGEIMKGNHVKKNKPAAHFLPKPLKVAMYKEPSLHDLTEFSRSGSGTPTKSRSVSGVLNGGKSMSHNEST
UniProt O60499: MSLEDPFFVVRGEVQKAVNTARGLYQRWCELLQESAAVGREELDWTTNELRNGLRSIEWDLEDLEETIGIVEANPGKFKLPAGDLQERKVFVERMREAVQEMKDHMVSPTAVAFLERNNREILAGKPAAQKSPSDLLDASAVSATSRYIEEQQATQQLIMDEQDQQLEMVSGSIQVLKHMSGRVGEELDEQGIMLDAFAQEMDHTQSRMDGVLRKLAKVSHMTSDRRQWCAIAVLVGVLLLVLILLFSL
UniProt Q9HCP0: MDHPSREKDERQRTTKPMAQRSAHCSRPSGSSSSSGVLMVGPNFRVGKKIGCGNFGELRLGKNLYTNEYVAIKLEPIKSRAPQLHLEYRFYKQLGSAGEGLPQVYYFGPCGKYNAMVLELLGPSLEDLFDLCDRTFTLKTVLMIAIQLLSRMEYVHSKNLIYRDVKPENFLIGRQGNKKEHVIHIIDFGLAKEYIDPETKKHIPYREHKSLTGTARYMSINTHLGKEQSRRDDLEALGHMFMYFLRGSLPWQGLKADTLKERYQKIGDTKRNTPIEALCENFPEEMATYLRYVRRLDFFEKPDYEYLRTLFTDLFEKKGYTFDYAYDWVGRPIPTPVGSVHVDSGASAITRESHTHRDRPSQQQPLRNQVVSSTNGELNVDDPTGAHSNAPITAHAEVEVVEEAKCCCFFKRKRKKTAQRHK
UniProt P54826: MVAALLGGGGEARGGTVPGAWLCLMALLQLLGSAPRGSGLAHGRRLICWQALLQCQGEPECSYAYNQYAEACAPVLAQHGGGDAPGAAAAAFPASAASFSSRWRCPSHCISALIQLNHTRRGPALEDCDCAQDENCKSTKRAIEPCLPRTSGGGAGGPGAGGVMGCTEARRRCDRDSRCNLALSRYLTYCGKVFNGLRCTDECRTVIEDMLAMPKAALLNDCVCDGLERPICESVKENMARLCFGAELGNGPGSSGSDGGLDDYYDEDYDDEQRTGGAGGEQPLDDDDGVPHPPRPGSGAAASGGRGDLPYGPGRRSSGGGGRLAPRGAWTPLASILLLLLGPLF
UniProt Q9BV23: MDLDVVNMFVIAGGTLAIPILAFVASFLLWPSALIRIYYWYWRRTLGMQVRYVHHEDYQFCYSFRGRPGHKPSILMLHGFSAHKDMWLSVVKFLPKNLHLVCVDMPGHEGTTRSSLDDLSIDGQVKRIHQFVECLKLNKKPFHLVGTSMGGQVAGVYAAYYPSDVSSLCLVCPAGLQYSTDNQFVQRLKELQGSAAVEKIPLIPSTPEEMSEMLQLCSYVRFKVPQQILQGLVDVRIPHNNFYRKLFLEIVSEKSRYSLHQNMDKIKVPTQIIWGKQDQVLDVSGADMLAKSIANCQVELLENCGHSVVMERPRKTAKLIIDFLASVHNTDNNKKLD
UniProt Q9H8S9: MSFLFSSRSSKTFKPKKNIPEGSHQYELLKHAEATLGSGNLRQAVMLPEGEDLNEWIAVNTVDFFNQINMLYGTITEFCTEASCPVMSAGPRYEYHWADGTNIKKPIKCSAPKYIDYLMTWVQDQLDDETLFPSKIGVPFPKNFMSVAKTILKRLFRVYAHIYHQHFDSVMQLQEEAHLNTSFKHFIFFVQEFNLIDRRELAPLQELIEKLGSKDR

Compound: [O-][N+](C(C1=C(C(O)=C2)NC(C(C=C3)=CC=C3Cl)C4C1C=CC4)=C2Cl)=O
Experiment: melting temperature shift (compound 7 minus DMSO); higher = compound stabilises the protein
Settings: 10 µM
Description: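 Thermal proteome profiling (TMT mass spectrometry) in intact DAOY medulloblastoma cells or DAOY lysates treated with 10 µM compound 7 or DMSO, heated at 10 temperatures from 40.5 to 73.8 °C for 3 min. Melting curves were fitted with the Bioconductor TPP package, and the melting point difference between compound and vehicle is reported per protein (single curve per condition).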

[1] = system: DAOY cell lysate, treatment time: 20 min, 4 °C
[2] = system: intact DAOY cells, treatment time: 90 min, 37 °C

Row | Target | melting temperature shift [1] [°C] | melting temperature shift [2] [°C]
1 | CHAF1B (UniProt Q13112) | 0.854 | 0.244
2 | KIF3A (UniProt Q9Y496) | -0.542 | -0.668
3 | APP (UniProt P05067) | 0.288 | –
4 | COPG2 (UniProt Q9UBF2) | -0.771 | 0.0383
5 | YWHAE (UniProt P62258) | -1.07 | -0.0113
6 | RFC4 (UniProt P35249) | -0.363 | -1.19
7 | STX8 (UniProt Q9UNK0) | -0.897 | –
8 | ARMC8 (UniProt Q8IUR7) | -0.71 | 0.118
9 | FKBP9 (UniProt O95302) | 1.14 | 1.25
10 | STIM1 (UniProt Q13586) | 2.43 | 0.706
11 | UniProt Q9NWS6 | 1.48 | –
12 | SRM (UniProt P19623) | -0.0548 | -1.14
13 | UniProt Q01469 | 0.129 | 0.149
14 | UniProt Q96QD9 | 1.34 | –
15 | WIPF2 (UniProt Q8TF74) | -0.58 | –
16 | UniProt Q9BWJ5 | -0.174 | 0.558
17 | UniProt P19087 | – | 0.268
18 | EPHA6 (UniProt Q9UF33) | – | 1.49
19 | MIS18A (UniProt Q9NYP9) | 0.0474 | -1.13
20 | UniProt Q8NEV1 | – | -0.415
21 | PAM (UniProt P19021) | 0.753 | –
22 | UCHL3 (UniProt P15374) | -0.631 | 1.17
23 | TBC1D4 (UniProt O60343) | -0.86 | 0.116
24 | UniProt P33947 | – | -1.59

Row | Target | melting temperature shift [1] [°C] | melting temperature shift [2] [°C]
25 | RNPS1 (UniProt Q15287) | -0.986 | -0.487
26 | RPA1 (UniProt P27694) | -0.568 | -0.691
27 | SLC7A6 (UniProt Q92536) | – | -1.8
28 | SNRPD2 (UniProt P62316) | -1.4 | -0.192
29 | TPP1 (UniProt O14773) | 1.01 | –
30 | PYROXD1 (UniProt Q8WU10) | -1.39 | –
31 | GLMN (UniProt Q92990) | -1.38 | 0.0287
32 | PAPOLA (UniProt P51003) | -0.365 | -1.12
33 | MYH14 (UniProt Q7Z406) | -0.638 | 0.803
34 | PAK2 (UniProt Q13177) | -0.536 | 0.264
35 | UniProt Q8N680 | 3.12 | –
36 | VPS4A (UniProt Q9UN37) | -1.41 | -0.223
37 | ABCE1 (UniProt P61221) | -0.56 | -0.609
38 | UniProt Q96EK4 | -1.48 | –
39 | BRAP (UniProt Q7Z569) | -0.944 | 1.82
40 | TFIP11 (UniProt Q9UBB9) | 0.0926 | 0.862
41 | TMED5 (UniProt Q9Y3A6) | -0.194 | -0.856
42 | UniProt Q9BXX2 | – | -0.753
43 | PCF11 (UniProt O94913) | -2.03 | –
44 | UBE2J1 (UniProt Q9Y385) | 0.876 | -0.215
45 | UniProt P09488 | -0.352 | -1.95
46 | COMMD2 (UniProt Q86X83) | -0.743 | –
47 | CASP3 (UniProt P42574) | -0.996 | -0.215
48 | SETDB1 (UniProt Q15047) | -0.828 | -0.471

Row | Target | melting temperature shift [1] [°C] | melting temperature shift [2] [°C]
49 | BMS1 (UniProt Q14692) | – | 0.0164
50 | UniProt Q9BTV5 | -1.74 | 0.3
51 | CLIC6 (UniProt Q96NY7) | -1.37 | -0.444
52 | PDS5B (UniProt Q9NTI5) | -0.288 | -0.714
53 | UniProt Q5I7T1 | – | -0.655
54 | UniProt P38570 | – | 1.8
55 | SCP2 (UniProt P22307) | 2.04 | -0.972
56 | LRPPRC (UniProt P42704) | 0.242 | -0.751
57 | UniProt Q92913 | -0.63 | –
58 | STX10 (UniProt O60499) | -0.808 | 2.03
59 | FAM213A (UniProt Q9BRX8) | 1.93 | 0.657
60 | TIMM50 (UniProt Q3ZCQ8) | 0.897 | -0.499
61 | HCFC1 (UniProt P51610) | -0.455 | -0.62
62 | CPSF2 (UniProt Q9P2I0) | 0.0522 | -0.31
63 | TMEM68 (UniProt Q96MH6) | -2.3 | 0.133
64 | UniProt Q9Y6X8 | -0.101 | –
65 | NUP37 (UniProt Q8NFH4) | -0.0953 | 0.811
66 | GTF3C1 (UniProt Q12789) | -0.969 | 1.64
67 | HEATR5B (UniProt Q9P2D3) | -0.375 | 0.328
68 | UniProt O60613 | 0.44 | 0.332
69 | CNNM4 (UniProt Q6P4Q7) | – | 1.56
70 | UniProt Q9HCP0 | – | 1.65
71 | PFDN5 (UniProt Q99471) | -1.42 | -0.207
72 | UniProt Q96PZ2 | 3.4 | 0.325

Row | Target | melting temperature shift [1] [°C] | melting temperature shift [2] [°C]
73 | UniProt Q03013 | – | -2.36
74 | MRTO4 (UniProt Q9UKD2) | 0.484 | 0.0861
75 | UniProt P54826 | – | -0.845
76 | UniProt P54289 | 1.11 | -0.528
77 | RANGAP1 (UniProt P46060) | -0.286 | -0.378
78 | MPP1 (UniProt Q00013) | 0.979 | -0.0226
79 | ITPK1 (UniProt Q13572) | 1.07 | -1.53
80 | SRGAP2 (UniProt O75044) | 0.000481 | -1.14
81 | SSBP1 (UniProt Q04837) | -3.73 | –
82 | R3HCC1L (UniProt Q7Z5L2) | 0.767 | –
83 | CDC42BPA (UniProt Q5VT25) | – | -0.0948
84 | UniProt Q7Z3J3 | – | 0.0249
85 | VPS51 (UniProt Q9UID3) | -0.448 | –
86 | RIPK2 (UniProt O43353) | 1.1 | -0.583
87 | NDUFS7 (UniProt O75251) | -0.221 | -0.635
88 | PIP4K2B (UniProt P78356) | -1.3 | 0.445
89 | ABHD6 (UniProt Q9BV23) | – | -0.468
90 | ENO3 (UniProt P13929) | -1.09 | –
91 | DNM2 (UniProt P50570) | -0.452 | -0.759
92 | POLR2I (UniProt P36954) | 0.88 | –
93 | DDX1 (UniProt Q92499) | -0.403 | 0.0441
94 | FLOT1 (UniProt O75955) | 0.415 | 0.843
95 | TFAM (UniProt Q00059) | 2.79 | 0.14
96 | CASP4 (UniProt P49662) | -0.0413 | 0.274

Row | Target | melting temperature shift [1] [°C] | melting temperature shift [2] [°C]
97 | ZNF638 (UniProt Q14966) | 0.641 | 0.288
98 | SCAMP3 (UniProt O14828) | 1.4 | 0.901
99 | UniProt Q14194 | 1.17 | -0.137
100 | UniProt Q86SI9 | – | -0.564
101 | UniProt Q9H8S9 | – | 0.236
102 | UniProt Q9Y388 | -0.485 | –
103 | GSS (UniProt P48637) | -1.18 | -0.824
104 | NAGK (UniProt Q9UJ70) | -1.18 | 0.0834
105 | ATP6V1G1 (UniProt O75348) | -0.461 | –
106 | STAMBP (UniProt O95630) | 0.23 | -0.0669
107 | MTERF3 (UniProt Q96E29) | – | 1.59
108 | ITFG1 (UniProt Q8TB96) | -0.927 | –
109 | UniProt O14602 | – | -0.387
110 | UniProt Q9BQT8 | 1.4 | –
111 | RBM8A (UniProt Q9Y5S9) | -0.0823 | 1.42
112 | UniProt Q96T58 | 1.79 | –
113 | TSTA3 (UniProt Q13630) | -0.151 | -0.014
114 | PPP1R18 (UniProt Q6NYC8) | – | -7.99e-05
115 | CCNK (UniProt O75909) | -0.711 | -0.104
116 | LSM3 (UniProt P62310) | -0.128 | -0.733
117 | IGBP1 (UniProt P78318) | -1.23 | -0.884
118 | UniProt P78352 | – | -0.0963

Random excerpt: 7 entries already listed, in no set order.
Row | Target | melting temperature shift [1] [°C] | melting temperature shift [2] [°C]
116 | LSM3 (UniProt P62310) | -0.128 | -0.733
105 | ATP6V1G1 (UniProt O75348) | -0.461 | –
100 | UniProt Q86SI9 | – | -0.564
102 | UniProt Q9Y388 | -0.485 | –
114 | PPP1R18 (UniProt Q6NYC8) | – | -7.99e-05
118 | UniProt P78352 | – | -0.0963
110 | UniProt Q9BQT8 | 1.4 | –

Single values are uncertain, as repeats are few or missing.
